Measurements as given in PubChem BioAssay AID493014 (National Center for Advancing Translational Sciences (NCATS), 2011).
The other results are listed elsewhere or left out. Further columns of the screen follow, without active or inactive calls. The list favours compounds with an active or inconclusive main result. Words in brackets tell the shape of the fitted curve; partial curves, single points and poor fits give uncertain potencies.

Experiment: qHTS Assay to Find Inhibitors of Chronic Active B-Cell Receptor Signaling
Details: ABC-DLBCL IkBa-CBG/CBR reporter, luminescence ratio (green luciferase fused to IkBa over red control in TMD8 lymphoma cells), 4 h
In short: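 Doxycycline induced both beetle luciferases in TMD8 lymphoma cells; IKK-driven degradation limits the IkappaBalpha-fused green signal, while red luminescence normalises for cell number and nonspecific effects. Compounds tested up to 46 uM, 4 hrs.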

[1] = measured here: CBR red luminescence, cell number
[2] = measured here: IkBa-CBG green luminescence

SMILES	AC50 [1]	AC50 [2]
O=C(Nc1ccc2[nH]ccc2c1)c1ccccc1	14.1 µM [falling, partial curve]	–
Cc1cccc(NC(=O)c2nc[nH]c2C(=O)N2CCc3ccccc3C2)c1	0.82 µM [falling, full curve, poor fit]	–
CCN1CCc2c(OCC(=O)N3CCCc4ccccc43)cccc2C1=O	0.562 µM [falling, full curve, poor fit]	–
Cc1cc(C)n2nc(SCC(=O)c3cccs3)nc2n1	35.5 µM [falling, single point]	–
COc1ccccc1N1CCN(C2CCCCC2NS(=O)(=O)c2ccc(Cl)cc2)CC1 (configuration not stated)	5.01 µM [rising, partial curve]	–
COc1cc(OC)c(-n2cc(-c3ccc(OC)c(OC)c3)[nH]c2=S)cc1Cl	1.58 µM [rising, partial curve, poor fit]	–
O=C(Nc1ccc(S(=O)(=O)N2CCc3ccccc32)cc1)c1ccco1	10 µM [falling, partial curve, poor fit]	–
Cc1ccc(N(Cc2ccccc2)C(=O)Cc2ccc(S(=O)(=O)N3CCOCC3)s2)cc1	29.1 µM [falling, single point]	–
O=C(CN1CC(=O)Oc2ccccc21)NCc1ccco1	11.2 µM [falling, partial curve]	–
COc1cccc(N2C(=O)C(O)=C(C(C)=O)C2c2ccc(OC)c(OC)c2)c1 (configuration not stated)	18.4 µM [rising, single point]	–
Cc1nn(Cc2ccccc2Cl)c(C)c1C(=O)Nc1nnc(C2CC2)s1	4.47 µM [falling, single point]	–
CC1CCc2c(C(=O)NCc3ccco3)csc2C1 (configuration not stated)	2.24 µM [falling, full curve, poor fit]	–
CCCCC(CC)CNC(=O)C(=O)c1ccccc1NC(C)=O (configuration not stated)	8.2 µM [rising, partial curve, poor fit]	–
Cn1c(Oc2ccccc2)c(C=O)c2ccccc21	5.01 µM [rising, full curve]	–
CCOc1ccc2[nH]c(C(=O)N/N=C/c3ccccc3OC)cc2c1	35.5 µM [rising, single point]	15.8 µM [falling, partial curve, poor fit]
CCOc1cc(NC(=S)Nc2ccccc2OC)c(OCC)cc1NC(=O)c1ccccc1C	15.8 µM [falling, partial curve]	–
CCOc1ccc(OCC)c(S(=O)(=O)n2cc(C)nc2CC)c1	10 µM [rising, partial curve]	–
CC(C)(C)NCC(O)CON=C1c2ccccc2-c2ccccc21 (configuration not stated)	22.4 µM [falling, single point]	–
CC12OC1C1(O)CCCC1=CC2=O (configuration not stated)	35.5 µM [falling, single point]	–
Cc1ccc(S(C)(=O)=O)cc1C(=O)NC(C)C1CC2CCC1C2 (configuration not stated)	3.16 µM [rising, partial curve, poor fit]	–
COc1ccc(Nc2nc(Cl)nc(N3CCN(c4ccc(OC)cc4)CC3)n2)cc1	0.355 µM [rising, full curve, poor fit]	–

Nothing new here: an excerpt of the list.
SMILES	AC50 [1]	AC50 [2]
Cc1cccc(NC(=O)c2nc[nH]c2C(=O)N2CCc3ccccc3C2)c1	0.82 µM [falling, full curve, poor fit]	–
CCN1CCc2c(OCC(=O)N3CCCc4ccccc43)cccc2C1=O	0.562 µM [falling, full curve, poor fit]	–

Record cards, from the list above. Values in the order: AC50 [1] | AC50 [2]
`COc1ccccc1N1CCN(C2CCCCC2NS(=O)(=O)c2ccc(Cl)cc2)CC1` (configuration not stated) in the list: 5.01 µM [rising, partial curve] | –
`COc1cccc(N2C(=O)C(O)=C(C(C)=O)C2c2ccc(OC)c(OC)c2)c1` (configuration not stated) in the list: 18.4 µM [rising, single point] | –

Later entries.

SMILES	AC50 [1]	AC50 [2]
CCOc1ccc(N(CC(=O)Nc2ccc(OC)cc2)C2=NC3CS(=O)(=O)CC3S2)cc1 (configuration not stated)	3.98 µM [falling, single point]	–
Cc1nn(C)c(NC(=O)c2ccc(Cl)cc2)c1Cl	3.98 µM [rising, partial curve, poor fit]	–
Cc1cc(C(=O)CSc2nnnn2-c2ccc(O)cc2)c(C)n1Cc1ccc2c(c1)OCO2	29.1 µM [falling, single point]	–
Cc1ccccc1-c1ccc(C(=O)Nc2cccc(F)c2)o1	23.1 µM [falling, single point]	–
CCc1nc2scc(-c3ccccc3)c2c(=O)n1N	2.06 µM [rising, partial curve, poor fit]	–
O=C(c1ccncc1)c1ccc([N+](=O)[O-])cc1	35.5 µM [rising, single point]	–
Cc1cccc(N2C(=O)SC(SC(=Nc3ccccc3)Nc3ccccc3)C2=O)c1 (configuration not stated)	25.9 µM [falling, partial curve]	–
O=C(NCc1ccccc1)C(c1ccccn1)N(C(=O)c1csnn1)c1ccccc1F (configuration not stated)	10 µM [falling, partial curve, poor fit]	–
O=C(C1COc2ccccc2O1)N1CCN(c2ccccn2)CC1 (configuration not stated)	9.2 µM [rising, partial curve, poor fit]	–
COc1ccc(C)cc1Nc1ncnc2c1c(-c1ccccc1)cn2-c1ccc(C)cc1	20 µM [rising, single point]	–
COc1ccc(-c2noc(-c3ccccc3F)n2)cc1	11.6 µM [falling, single point]	–
O=C(NCCN1CCN(c2ccccc2)CC1)c1cccn2c(=O)c3cc(Cl)ccc3nc12	20.6 µM [rising, single point]	–
COc1ccccc1C(=O)NNC(=O)C(=O)Nc1ccc(C)cc1	4.47 µM [falling, partial curve, poor fit]	–
CCOc1ccc(C(c2c(C)[nH][nH]c2=O)c2c(C)[nH][nH]c2=O)cc1OC	12.6 µM [falling, partial curve, poor fit]	–
CCOCCn1ccc2c(OCC(=O)Nc3cccc(F)c3)cccc2c1=O	35.5 µM [falling, partial curve, poor fit]	–
Cc1cc(C)nc(SCc2ccc(Br)cc2)n1	8.91 µM [rising, partial curve]	–
CCCOc1ccccc1/C=C1\SC(N2CCCCC2)=NC1=O	35.5 µM [falling, single point]	–
O=C(Nc1ccc(Cl)cc1)[C@@H]1[C@@H]2C(=O)N(c3ccc(Cl)cc3Cl)C(=O)[C@@H]2[C@H]2C=CC=NN21	0.461 µM [falling, full curve, poor fit]	–
COCCCn1c(N)c(-c2nc3ccccc3n2C)c2nc3ccccc3nc21	10.3 µM [rising, partial curve, poor fit]	18.4 µM [falling, partial curve, poor fit]
Cc1c(-c2cccc(NC(=O)c3ccco3)c2)nc2ncccn12	35.5 µM [falling, single point]	–
CCOC(=O)CCN(Cc1sccc1C)S(=O)(=O)c1ccc(F)cc1	0.58 µM [falling, full curve, poor fit]	–

SMILES	AC50 [1]	AC50 [2]
COc1ccc(CCn2c(-c3ccco3)nc3nc4ccccc4nc32)cc1OC	10 µM [falling, partial curve]	–
COc1ccccc1CN1CCNC(=O)C1CC(=O)NCc1c(C)n[nH]c1C (configuration not stated)	0.447 µM [falling, partial curve, poor fit]	–
c1ccc(CCc2nn3c(-c4ccncc4)nnc3s2)cc1	0.651 µM [falling, full curve, poor fit]	–
CC(NC(=O)Nc1ccc([N+](=O)[O-])cc1)C(c1ccccc1)N1CCOCC1 (configuration not stated)	2.82 µM [rising, full curve]	–
Cc1ccn(CC(=O)N2CCCC(N3CCN(c4ccc(F)cc4)CC3)C2)n1 (configuration not stated)	35.5 µM [rising, single point]	–
Cc1c(-n2c(SCC(C)C)nc3ccccc3c2=O)c(=O)n(-c2ccccc2)n1C	11.2 µM [rising, partial curve]	–
Cc1cc(SCC(=O)c2ccccc2)nc(SCC(=O)c2ccccc2)n1	35.5 µM [falling, single point]	–
CC(C)n1c(N)c(C#N)c2ccc([N+](=O)[O-])cc2c1=O	1.41 µM [rising, partial curve, poor fit]	–
O=C(NC1CCCC1)c1ccc2nc[nH]c2c1	11.6 µM [rising, partial curve, poor fit]	–
COc1ccc(CN(C)CC(O)COc2ccc(-c3ccccc3)cc2)cc1OC (configuration not stated)	3.98 µM [rising, full curve, poor fit]	–
O=C(N/N=C/c1c(Nc2cccc(C(F)(F)F)c2)nc2ccccn2c1=O)c1ccccc1	4.47 µM [rising, full curve, poor fit]	–
COc1ccc(Cl)cc1NC(=O)N1CCN(C2CCCCC2)CC1	11.6 µM [falling, partial curve, poor fit]	–
COc1ccc(CN2C(=O)/C(=C/c3ccncc3)SC2=S)cc1	20.6 µM [falling, single point]	29.1 µM [falling, single point]
Cc1c(Cl)c([N+](=O)[O-])nn1Cc1ccc(C(=O)NN)o1	1.58 µM [falling, full curve, poor fit]	–
O=C(Nc1ccc(N2CCCC2)cc1)c1ccc2ccccc2c1	2.59 µM [falling, full curve]	–
C[C@H](NC(=O)c1ncn(C)c1C(=O)N[C@@H](C)c1ccccc1)c1ccccc1	29.1 µM [rising, single point]	–
CCN1CCN(CNC(=O)c2cnccn2)CC1	6.51 µM [rising, single point]	–
CCOC(=O)CCc1c(C)nc2cc(-c3ccc(Cl)cc3)[nH]n2c1=O	0.0164 µM [falling, full curve, poor fit]	–
O=C(Nc1ccc2c(c1)OCO2)c1ccc(Br)c(S(=O)(=O)N2CCCC2)c1	4.61 µM [falling, full curve]	–
COc1ccc(OCCSc2nc(N)cc(N)n2)cc1	0.259 µM [rising, full curve, poor fit]	–
O=C(Nc1ccc(C(O)(C(F)(F)F)C(F)(F)F)cc1)c1ccc(Cl)c([N+](=O)[O-])c1	20.6 µM [falling, single point]	25.9 µM [rising, single point]
